According to patent publication US12123019B2, “Uses of kinase inhibitors for inducing and maintaining pluripotency” (Whitehead Institute for Biomedical Research, priority 2014, dated 2024):
At least one compound was matched to its structure with a doubt left.

Assays:
[1] = test system: OCT4-ΔPE-GFP-negative (primed) human ESCs; test: Removal of latent OCT4-ΔPE-GFP-negative cells during 2i/L/DOX induction; format: cell-based; conditions: additional treatment with 0.1 μM PD173074 and 5 μM SB431542 upon addition of 2i/L/DOX
Text: VSVG coated lentiviruses were generated in HEK-293 cells as described previously (Brambrink et al., 2008; Soldner et al., 2009; Soldner et al., 2011). Briefly, culture medium was changed 12 hr post-transfection and virus-containing supernatant was collected 48 to 72 hr post transfection. Viral supernatant was filtered through a […] filter. Virus-containing supernatants of the 2 reprogramming viruses (FUW-tetO-lox-hKLF2 and FUW-tetO-lox-hNANOG) were pooled and supplemented with the FUW-lox-M2rtTA virus and an equal volume of fresh culture medium. 1×10^6 human ESCs were seeded 24 hr before transduction in T75 flasks on matrigel in mTesr1 medium (STEMCELL Technologies). Two consecutive infections in the presence of […] of polybrene were performed over a period of 24 hr. Culture medium was changed 12 hr after the last infection. Five days after transduction, human ESCs were passaged using 0.25% trypsin/EDTA solution (Invitrogen) and re-plated on mitomycin C inactivated mouse embryonic fibroblast (MEF) feeder layers in conventional human ESC medium. To induce conversion to the naïve state, human ESCs were trypsinized and seeded at a density of 1×10^5 cells per 6 individual well on a MEF feeder layer in presence of ROCK inhibitor Y-27632. […]

[2] = test system: OCT4-ΔPE-GFP+ human ESCs; test: Validation of hit compounds in 6 well format: DOX withdrawal and culture in 2i/L plus hit compound; format: cell-based; conditions: up to 10 passages without DOX
Text: To identify compounds that sustain OCT4-ΔPE-GFP activity in the absence of KLF2 and NANOG expression, a kinase inhibitor library was screened in the presence of 2i/L for a period of 7 days after DOX withdrawal in 96 well format (FIG. 2A). This screen identified 10 different hit compounds that partially rescued the proportion of GFP+ cells when assayed by high-throughput FACS analysis (FIG. 2B-C and FIG. 9A). Notable among these hits were four separate inhibitors of BRAF and four inhibitors of upstream receptor tyrosine kinases (RTKs), including DDR1, VEGFR1 and FGFR1. A validation experiment was then performed in 6 well format by withdrawing DOX and culturing the cells in 2i/L supplemented with each hit compound for up to 10 passages (FIG. 2D). Nearly all hit compounds maintained a proportion of GFP+ cells similar to that observed with DOX. […] Gene expression analysis 5 passages after DOX withdrawal confirmed the absence of KLF2 and NANOG transgene expression and retention of endogenous OCT4 and GFP transcripts (FIG. 2E and FIG. 9B). To validate these findings in an independent system DOX-inducible KLF2 and NANOG transgenes were introduced in a line of wild-type WIBR3 human ESCs. Upon application of DOX and 2i/L, dome-shaped colonies appeared that could be expanded clonally.

Structure (SMILES): CCN(CC)CCCCNc1ncc2cc(-c3cc(OC)cc(OC)c3)c(NC(=O)NC(C)(C)C)nc2n1 [PD173074]
- latent OCT4-ΔPE-GFP-negative cells [1]: removed almost entirely
- OCT4-ΔPE-GFP activity / proportion of GFP+ cells [2]: maintenance of OCT4-ΔPE-GFP activity
- colony morphology and proliferation [2]: disorganized morphology
